Test [1] has as its target GST-PTB full-length Y247Q (UniProt P26599). Put plainly: pull-down; GST-PTB RRM2 or GST-PTB full-length (wild type, Y247Q) as bait, HeLa nuclear extract; Western blot with antibodies against Matrin3 and Raver1; only the target purified. For orientation: In western blotting, separated proteins are transferred to a membrane and probed.
Another test deals with T1, GST-SXL (UniProt P19339).
T1 sequence: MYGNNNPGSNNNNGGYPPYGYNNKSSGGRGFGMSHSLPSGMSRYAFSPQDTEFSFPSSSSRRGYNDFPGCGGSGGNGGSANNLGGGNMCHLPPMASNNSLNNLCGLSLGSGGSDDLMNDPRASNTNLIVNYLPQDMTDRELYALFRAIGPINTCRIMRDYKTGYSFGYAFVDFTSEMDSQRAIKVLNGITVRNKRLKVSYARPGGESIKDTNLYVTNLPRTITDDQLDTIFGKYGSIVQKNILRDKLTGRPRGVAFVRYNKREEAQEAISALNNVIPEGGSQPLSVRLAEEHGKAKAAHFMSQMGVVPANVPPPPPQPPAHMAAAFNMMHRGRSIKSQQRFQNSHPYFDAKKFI
The experiment in a line: pull-down; GST-PTB or GST-SXL as bait; MS2 fusion peptides transcribed and translated in vitro; RNase A 25 ug/ml after translation and 0.5 ug/ml in the pre-incubation, 3 h at 4°C; only the target purified.

Chains of the proteins cited; added tags and fusions are not shown. Lines headed by an entry give the natural chain unless they say otherwise; changes in a name come on top.
UniProt P26599: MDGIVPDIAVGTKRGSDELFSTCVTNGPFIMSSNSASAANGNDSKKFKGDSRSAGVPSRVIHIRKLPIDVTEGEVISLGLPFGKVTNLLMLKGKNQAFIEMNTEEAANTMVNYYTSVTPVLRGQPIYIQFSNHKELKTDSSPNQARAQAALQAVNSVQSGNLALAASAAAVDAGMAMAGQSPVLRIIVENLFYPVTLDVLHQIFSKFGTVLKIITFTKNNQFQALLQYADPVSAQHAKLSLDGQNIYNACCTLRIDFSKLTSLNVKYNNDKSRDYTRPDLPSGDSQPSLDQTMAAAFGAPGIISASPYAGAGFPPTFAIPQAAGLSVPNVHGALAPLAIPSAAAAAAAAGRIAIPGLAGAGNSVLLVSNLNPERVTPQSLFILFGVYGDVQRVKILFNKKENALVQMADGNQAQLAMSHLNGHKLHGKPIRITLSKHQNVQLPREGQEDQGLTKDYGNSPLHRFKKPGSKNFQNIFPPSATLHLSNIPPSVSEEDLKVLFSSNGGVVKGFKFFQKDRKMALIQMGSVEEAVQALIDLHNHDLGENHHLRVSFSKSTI

These are yes or no findings as the source states them, for the method shown. In cells and extracts the contact can be indirect. For part of these data: Tags and fused reporters may be left off the sequences shown.

The results in this text go back to article PMC4365034.

B1: Raver1 (endogenous, HeLa nuclear extract) (protein, UniProt Q8IY67 1-606)
chain: MAADVSVTHRPPLSPKSGAEVEAGDAAERRAPEEELPPLDPEEIRKRLEHTERQFRNRRKILIRGLPGDVTNQEVHDLLSDYELKYCFVDKYKGTAFVTLLNGEQAEAAINAFHQSRLRERELSVQLQPTDALLCVANLPPSLTQQQFEELVRPFGSLERCFLVYSERTGQSKGYGFAEYMKKDSAARAKSDLLGKPLGPRTLYVHWTDAGQLTPALLHSRCLCVDRLPPGFNDVDALCRALSAVHSPTFCQLACGQDGQLKGFAVLEYETAEMAEEAQQQADGLSLGGSHLRVSFCAPGPPGRSMLAALIAAQATALNRGKGLLPEPNILQLLNNLGPSASLQLLLNPLLHGSAGGKQGLLGAPPAMPLLNGPALSTALLQLALQTQGQKKPGILGDSPLGALQPGAQPANPLLGELPAGGGLPPELPPRRGKPPPLLPSVLGPAGGDREALGLGPPAAQLTPPPAPVGLRGSGLRGPLSHFYSGSPTSYFTSGLQAGLKQSHLSKAIGSSPLGSGEGLLGLSPGPNGHSHLLKVRAGGGDMQGWEAPAPQRPLTRPALPSVSRPHWAARNAALPTCCPRPSPAQKAAMWASTPRASAATTRTPT
As for B1, in test [1], the binding entry is recorded as “no binding”.

With QQSTNPAPGILGPPPPSFHL (peptide, UniProt P43243 346-365) [Matrin3 346-365 peptide fused to MS2 (FLAG-Matrin3 PRI-MS2)], in the test with GST-SXL, the binding result is on record as “no binding”.

Turning to PLPTPPGVSLLGEPPKDYRIP (peptide, UniProt Q9CW46 491-511) [Raver1 491-511 peptide fused to MS2 (FLAG-Raver1 PRI)], in the test with GST-SXL, the binding entry is “no binding”.
